Test results published in patent US11926611B1, “2-(2-ethoxyethoxy)-6-phenyl-4,4′-bipyridine-3-carbonitrile as an antimicrobial compound” (KING FAISAL UNIVERSITY, priority 2023, dated 2024).
At least one structure is not confirmed: it was looked up by name or label, or the drawing left a doubt.

What was measured:
Format in all cases: cell-based
Pseudomonas aeruginosa = experiment: Antimicrobial screening by agar dilution, Pseudomonas aeruginosa; settings: Ps. Aeroqonaza
Experimental: (§1) The antibacterial properties of the synthesized compound 2-(2-ethoxyethoxy)-6-phenyl-4,4′-bipyridine-3-carbonitrile were studied by the method of agar dilution. Test solutions of each compound was prepared in concentration of 1% using dimethylformamide as a solvent then they are diluted in physiological solution to obtain the final experimental dilutions 1:100, 1:200, 1:400, 1:800. The effect of these substances are compared with furacillin in a controllable study. The testing microbes used were gram positive bacteria Staphylococcus aureus, gram negative bacteria Pseudomonas aeruginosa and Escherichia coli and Candida albicans fungus. The experiments used for this survey were meat-pentonlu agar (EPA) for cultivation of bacteria and Saburo environment for the fungus. Each experiment used 1 mL of test solution on each plate […]. Two drops of emulsified with microbes feel were added. All experimental samples were taken from the agar after 10, 20, 40, 60 minutes in the environment on the basis of Patrk planted. The bacteria were cultivated at a temperature of 37° C. for 1 day and the mushroom was kept in a thermostat for […] at a temperature of 28° C. Then results were checked.

Escherichia coli = experiment: Antimicrobial screening by agar dilution, Escherichia coli; settings: E. Coli
Experimental: as §1

Staphylococcus aureus = experiment: Antimicrobial screening by agar dilution, Staphylococcus aureus; settings: St. Aereus
Experimental: as §1

Candida albicans = experiment: Antimicrobial screening by agar dilution, Candida albicans
Experimental: as §1

[1] = dilution rate 1:100 of 1% solution, exposure time 10 min
[2] = dilution rate 1:100 of 1% solution, exposure time 20 min
[3] = dilution rate 1:100 of 1% solution, exposure time 40 min
[4] = dilution rate 1:100 of 1% solution, exposure time 60 min
[5] = dilution rate 1:200 of 1% solution, exposure time 10 min
[6] = dilution rate 1:200 of 1% solution, exposure time 20 min
[7] = dilution rate 1:200 of 1% solution, exposure time 40 min
[8] = dilution rate 1:200 of 1% solution, exposure time 60 min
[9] = dilution rate 1:400 of 1% solution, exposure time 10 min
[10] = dilution rate 1:400 of 1% solution, exposure time 20 min
[11] = dilution rate 1:400 of 1% solution, exposure time 40 min
[12] = dilution rate 1:400 of 1% solution, exposure time 60 min
[13] = dilution rate 1:800 of 1% solution, exposure time 10 min
[14] = dilution rate 1:800 of 1% solution, exposure time 20 min
[15] = dilution rate 1:800 of 1% solution, exposure time 40 min
[16] = dilution rate 1:800 of 1% solution, exposure time 60 min

## NC(=O)N/N=C/c1ccc([N+](=O)[O-])o1 [Furacilin]
Pseudomonas aeruginosa; [1]
  antimicrobial activity (+/−): +
Pseudomonas aeruginosa; [2]
  antimicrobial activity (+/−): +
Pseudomonas aeruginosa; [3]
  antimicrobial activity (+/−): +
Pseudomonas aeruginosa; [4]
  antimicrobial activity (+/−): +
Pseudomonas aeruginosa; [5]
  antimicrobial activity (+/−): +
Pseudomonas aeruginosa; [6]
  antimicrobial activity (+/−): +
Pseudomonas aeruginosa; [7]
  antimicrobial activity (+/−): +
Pseudomonas aeruginosa; [8]
  antimicrobial activity (+/−): +
Pseudomonas aeruginosa; [9]
  antimicrobial activity (+/−): +
Pseudomonas aeruginosa; [10]
  antimicrobial activity (+/−): +
Pseudomonas aeruginosa; [11]
  antimicrobial activity (+/−): +
Pseudomonas aeruginosa; [12]
  antimicrobial activity (+/−): +
Pseudomonas aeruginosa; [13]
  antimicrobial activity (+/−): +
Pseudomonas aeruginosa; [14]
  antimicrobial activity (+/−): +
Pseudomonas aeruginosa; [15]
  antimicrobial activity (+/−): +
Pseudomonas aeruginosa; [16]
  antimicrobial activity (+/−): +
Escherichia coli; [1]
  antimicrobial activity (+/−): −
Escherichia coli; [2]
  antimicrobial activity (+/−): −
Escherichia coli; [3]
  antimicrobial activity (+/−): −
Escherichia coli; [4]
  antimicrobial activity (+/−): −
Escherichia coli; [5]
  antimicrobial activity (+/−): +
Escherichia coli; [6]
  antimicrobial activity (+/−): +
Escherichia coli; [7]
  antimicrobial activity (+/−): +
Escherichia coli; [8]
  antimicrobial activity (+/−): +
Escherichia coli; [9]
  antimicrobial activity (+/−): +
Escherichia coli; [10]
  antimicrobial activity (+/−): +
Escherichia coli; [11]
  antimicrobial activity (+/−): +
Escherichia coli; [12]
  antimicrobial activity (+/−): +
Escherichia coli; [13]
  antimicrobial activity (+/−): +
Escherichia coli; [14]
  antimicrobial activity (+/−): +
Escherichia coli; [15]
  antimicrobial activity (+/−): +
Escherichia coli; [16]
  antimicrobial activity (+/−): +
Staphylococcus aureus; [1]
  antimicrobial activity (+/−): −
Staphylococcus aureus; [2]
  antimicrobial activity (+/−): −
Staphylococcus aureus; [3]
  antimicrobial activity (+/−): −
Staphylococcus aureus; [4]
  antimicrobial activity (+/−): −
Staphylococcus aureus; [5]
  antimicrobial activity (+/−): +
Staphylococcus aureus; [6]
  antimicrobial activity (+/−): +
Staphylococcus aureus; [7]
  antimicrobial activity (+/−): +
Staphylococcus aureus; [8]
  antimicrobial activity (+/−): +
Staphylococcus aureus; [9]
  antimicrobial activity (+/−): +
Staphylococcus aureus; [10]
  antimicrobial activity (+/−): +
Staphylococcus aureus; [11]
  antimicrobial activity (+/−): +
Staphylococcus aureus; [12]
  antimicrobial activity (+/−): +
Staphylococcus aureus; [13]
  antimicrobial activity (+/−): +
Staphylococcus aureus; [14]
  antimicrobial activity (+/−): +
Staphylococcus aureus; [15]
  antimicrobial activity (+/−): +
Staphylococcus aureus; [16]
  antimicrobial activity (+/−): +
Candida albicans; [1]
  antimicrobial activity (+/−): −
Candida albicans; [2]
  antimicrobial activity (+/−): −
Candida albicans; [3]
  antimicrobial activity (+/−): +
Candida albicans; [4]
  antimicrobial activity (+/−): +
Candida albicans; [5]
  antimicrobial activity (+/−): +
Candida albicans; [6]
  antimicrobial activity (+/−): +
Candida albicans; [7]
  antimicrobial activity (+/−): +
Candida albicans; [8]
  antimicrobial activity (+/−): +
Candida albicans; [9]
  antimicrobial activity (+/−): +
Candida albicans; [10]
  antimicrobial activity (+/−): +
Candida albicans; [11]
  antimicrobial activity (+/−): +
Candida albicans; [12]
  antimicrobial activity (+/−): +
Candida albicans; [13]
  antimicrobial activity (+/−): +
Candida albicans; [14]
  antimicrobial activity (+/−): +
Candida albicans; [15]
  antimicrobial activity (+/−): +
Candida albicans; [16]
  antimicrobial activity (+/−): +
